{"source": "PubChem BioAssay AID686943 – Drosophila RNAi Screening Center | 2013", "test": "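Search across the genome for regulators of signalling from receptor tyrosine kinase to ERK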 (primary screen)", "cell system": "Drosophila S2R+ haemocyte-like cells expressing YFP-tagged ERK (Rolled)", "reagents": "long dsRNA against Drosophila genes", "conditions": "insulin stimulation versus unstimulated cells; dose and duration not given", "measurement": "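Per-plate z-scores of phospho-ERK immunostaining normalised to YFP-tagged ERK, measured with and without insulin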", "scale": "replicate 1, z-score of dpERK with insulin: higher = more active ERK per ERK-YFP after insulin", "note": "The deposit covers about 23,000 reagents; shown is an unselected part of those with a known target gene and a result. 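Extra replicates exist only for a retested subset of genes; insulin dose and duration not given; both raised and lowered dpERK matter.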 Further read-outs or replicates are left out here. Not stated in the record: the amount of reagent, the time to read-out."}
{"gene": "Cyp28c1", "dsRNA": "DRSC20236", "replicate 1, z-score of dpERK with insulin": -0.01}
{"gene": "Gpat4", "dsRNA": "DRSC04345", "replicate 1, z-score of dpERK with insulin": 1.16}
{"gene": "CG10559", "dsRNA": "DRSC14255", "replicate 1, z-score of dpERK with insulin": -0.05}
{"gene": "Rnp4F", "dsRNA": "DRSC18706", "replicate 1, z-score of dpERK with insulin": -0.56}
{"gene": "RpL14", "dsRNA": "DRSC11269", "replicate 1, z-score of dpERK with insulin": 1.08}
{"gene": "CR46300", "dsRNA": "DRSC12467", "replicate 1, z-score of dpERK with insulin": -0.25}
{"gene": "Irk3", "dsRNA": "DRSC02047", "replicate 1, z-score of dpERK with insulin": 1.3}
{"gene": "CG18622", "dsRNA": "DRSC15360", "replicate 1, z-score of dpERK with insulin": -0.09}
{"gene": "Tengl2", "dsRNA": "DRSC21968", "replicate 1, z-score of dpERK with insulin": -0.3}
{"gene": "CG5568", "dsRNA": "DRSC10518", "replicate 1, z-score of dpERK with insulin": 0.51}
{"gene": "CG5568", "dsRNA": "DRSC22816", "replicate 1, z-score of dpERK with insulin": -0.06}
{"gene": "CG31817", "dsRNA": "DRSC01537", "replicate 1, z-score of dpERK with insulin": -0.37}
{"gene": "CG31817", "dsRNA": "DRSC01538", "replicate 1, z-score of dpERK with insulin": 0.9}
{"gene": "CG31817", "dsRNA": "DRSC22476", "replicate 1, z-score of dpERK with insulin": 0.18}
{"gene": "CG18171", "dsRNA": "DRSC08524", "replicate 1, z-score of dpERK with insulin": -0.87}
{"gene": "Argk1", "dsRNA": "DRSC08959", "replicate 1, z-score of dpERK with insulin": 0.5}
{"gene": "Argk1", "dsRNA": "DRSC09668", "replicate 1, z-score of dpERK with insulin": 0.68}
{"gene": "Argk1", "dsRNA": "DRSC10460", "replicate 1, z-score of dpERK with insulin": 0.77}
{"gene": "Argk1", "dsRNA": "DRSC21558", "replicate 1, z-score of dpERK with insulin": 0.45}
{"gene": "Argk1", "dsRNA": "DRSC22665", "replicate 1, z-score of dpERK with insulin": 0.62}
{"gene": "PQBP1", "dsRNA": "DRSC14393", "replicate 1, z-score of dpERK with insulin": 0.03}
{"gene": "DAT", "dsRNA": "DRSC07394", "replicate 1, z-score of dpERK with insulin": 0.33}
{"gene": "eIF2D", "dsRNA": "DRSC13916", "replicate 1, z-score of dpERK with insulin": 0.19}
{"gene": "CG8746", "dsRNA": "DRSC07257", "replicate 1, z-score of dpERK with insulin": -0.04}
{"gene": "DNAlig3", "dsRNA": "DRSC15201", "replicate 1, z-score of dpERK with insulin": 0.38}
{"gene": "CG30334", "dsRNA": "DRSC05345", "replicate 1, z-score of dpERK with insulin": 0.94}
{"gene": "Rpt2", "dsRNA": "DRSC16799", "replicate 1, z-score of dpERK with insulin": -6.98}
{"gene": "emei", "dsRNA": "DRSC10897", "replicate 1, z-score of dpERK with insulin": 0.37}
{"gene": "emei", "dsRNA": "DRSC22684", "replicate 1, z-score of dpERK with insulin": 0.73}
{"gene": "CG6277", "dsRNA": "DRSC16008", "replicate 1, z-score of dpERK with insulin": 0.01}
{"gene": "CG14657", "dsRNA": "DRSC12219", "replicate 1, z-score of dpERK with insulin": 0.7}
{"gene": "CG14657", "dsRNA": "DRSC12243", "replicate 1, z-score of dpERK with insulin": -0.45}

An excerpt from the list above:
{"gene": "Cyp28c1", "dsRNA": "DRSC20236", "replicate 1, z-score of dpERK with insulin": -0.01}
{"gene": "Gpat4", "dsRNA": "DRSC04345", "replicate 1, z-score of dpERK with insulin": 1.16}
{"gene": "CG10559", "dsRNA": "DRSC14255", "replicate 1, z-score of dpERK with insulin": -0.05}
{"gene": "Rnp4F", "dsRNA": "DRSC18706", "replicate 1, z-score of dpERK with insulin": -0.56}
